Assay results from patent US5821330A (Nihon Medi-Physics Co., Ltd., priority 1993, dated 1998).

Experiment: general procedure: Fmoc solid-phase peptide synthesis; HMP Resin
Settings: whole synthesis

Substance	final purity (method not given)
C(Acm)GC(Acm)GGGKEYKAKVSNKALPAPIEKTISK	95% or more
C(Acm)GC(Acm)GGKTKPREQQYNSTYRVV	not less than 95%

Ends that are not written are not given here. * marks the point of attachment. Acm = CC(=O)NC*
